One compound from publication PMC9061857, “A fluorogenic probe for granzyme B enables in-biopsy evaluation and screening of response to anticancer immunotherapies” (Nature Communications, 2022) can be followed below.

The chains behind the UniProt entries cited, without tags or fusion partners. Residues count along the entry.
UniProt P10144, 21-247 limits assumed: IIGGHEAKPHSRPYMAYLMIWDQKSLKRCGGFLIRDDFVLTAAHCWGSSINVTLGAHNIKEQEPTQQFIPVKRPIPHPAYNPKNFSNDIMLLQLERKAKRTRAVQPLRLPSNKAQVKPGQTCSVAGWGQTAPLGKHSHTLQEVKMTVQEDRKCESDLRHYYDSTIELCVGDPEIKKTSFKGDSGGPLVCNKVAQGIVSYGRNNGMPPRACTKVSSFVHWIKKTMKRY

Certain results were filed several times, with different values. This is not the full list of results. An entry can have further records. Results that share an entry differ, and nothing given here explains why; dose, time, organism, isomer or construct need not be as stated for each record.

The target of this test is human GzmB (hGzmB) (Homo sapiens, UniProt P10144). Put plainly: HPLC conversion of fluorogenic peptides by hGzmB. The format is biochemical. The settings on record: probe 25 μM (Ac-IEPD-AMC 50 μM), TRIS buffer, 37 °C, HPLC-UV.

`CCC(C)C(NC(=O)CCc1ccc2n1[B-](F)(F)[N+]1=C(C)C=C(C)C1=C2)C(=O)NC(CCC(=O)O)C(=O)N1CCCC1C(=O)NC(CC(=O)O)C(=O)NCCNC(=O)c1ccc(N=Nc2ccc(N(C)C)cc2)cc1` (stereo not shown): the “HPLC conversion (20 nM hGzmB, 2 h)” value was 3% and < 5%.
